Laboratory results: the supplement of paper PMC10849652
The other results are listed elsewhere or left out.

Assays:
Assay in all cases: log2 fold change, soluble protein after heating vs DMSO (PISA); higher = thermal stabilisation; K562 cells, 10 uM, 30 min; active = over 0.2 and 3.5 SD of the protein, either way, in both replicates (recomputed)
[1] = compound: CC1=C(C=C(C=C1)NC(=O)C2=CC(=CC=C2)C(C)(C)C#N)NC3=CC4=C(C=C3)N=CN(C4=O)C
Outline: (§1)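 Values are thermal stability changes relative to control samples and are taken from duplicates. They are stated as log2 fold changes. Before quantification by TMTpro 16plex LC-MS/MS with equalised channel sums, K562 cells at 2×10^6 cells/mL were treated with 10 μM compound for 30 min, heated in aliquots for 3 min across 48°C-58°C, pooled, extracted in PBS with 0.5% NP-40 at 4°C, and centrifuged at 21,000xg for 90 min to give the soluble supernatant.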

[2] = compound: CC1=NC(=CC=C1)C2=C(N=C(N2)C(C)(C)C)C3=CC4=NC=CN=C4C=C3
Outline: as §1

Nexturastat A = compound: CCCCN(Cc1ccc(C(=O)NO)cc1)C(=O)Nc1ccccc1 [Nexturastat A]
Outline: as §1

epoxomicin = compound: CC[C@H](C)[C@@H](C(=O)N[C@@H]([C@@H](C)O)C(=O)N[C@@H](CC(C)C)C(=O)[C@]1(CO1)C)NC(=O)[C@H]([C@@H](C)CC)N(C)C(=O)C [epoxomicin]
Outline: as §1

[3] = compound: CCn1cc(-c2ccnc3[nH]c(-c4cccc(CN(C)C)c4)cc23)c(-c2ccc(NC(=O)N(C)C)cc2)n1
Outline: as §1

[4] = compound: CN1CCC(CNc2ccc3ncc(-c4cccc(OC(F)(F)F)c4)n3n2)CC1
Outline: as §1

vemurafenib = compound: CCCS(=O)(=O)Nc1ccc(F)c(C(=O)c2c[nH]c3ncc(-c4ccc(Cl)cc4)cc23)c1F [vemurafenib]
Outline: as §1

[5] = compound: CCCc1cc(C)[nH]c(=O)c1CNC(=O)c1cc(-c2ccnc(N3CCN(C)CC3)c2)cc2c1cnn2C(C)C
Outline: as §1

[6] = compound: CC[C@@H]1C(=O)N(C)c2cnc(Nc3ccc(C(=O)NC4CCN(C)CC4)cc3OC)nc2N1C1CCCC1
Outline: as §1

[7] = compound: CN(C)CC(=O)Nc1ccc2[nH]c(=O)c3ccccc3c2c1
Outline: as §1

[8] = compound: CN1C2=C(C3=C1C(=O)N(N=C3)CC4=CC(=CC=C4)N)SC(=C2)S(=O)C
Outline: as §1

[9] = compound: CC1=CC=C(C=C1)SC2=C3C=C(SC3=CN=C2)C(=O)N
Outline: as §1

[10] = compound: CCCS(=O)(=O)Nc1ccc(F)c(C(=O)c2c[nH]c3ncc(Cl)cc23)c1F
Outline: as §1

volasertib = compound: CC[C@@H]1C(=O)N(C)c2cnc(Nc3ccc(C(=O)N[C@H]4CC[C@H](N5CCN(CC6CC6)CC5)CC4)cc3OC)nc2N1C(C)C [volasertib]
Outline: as §1

[11] = compound: CC[C@H](C)N1C=C(C2=C(C=C(C=C21)C3=CN=C(C=C3)N4CCNCC4)C(=O)NCC5=C(C=C(NC5=O)C)C)C
Outline: as §1

givinostat = compound: CCN(CC)Cc1ccc2cc(COC(=O)Nc3ccc(C(=O)NO)cc3)ccc2c1 [givinostat]
Outline: as §1

[12] = compound: CCn1c(C(=O)N(C2CC2)C2CC2)cc2c3c(ncn3C)c(Nc3cc(C)n(C)n3)nc21
Outline: as §1

barasertib = compound: CCN(CCCOc1ccc2c(Nc3cc(CC(=O)Nc4cccc(F)c4)[nH]n3)ncnc2c1)CCOP(=O)(O)O [barasertib]
Outline: as §1

[13] = compound: CC1=C(C=C(C=C1)NC(=O)C2=CC(=CC=C2)N(C)C)NC(=O)C3=CC=C(C=C3)O
Outline: as §1

rosiglitazone = compound: CN(CCOC1=CC=C(C=C1)C[C@H]2C(=O)NC(=O)S2)C3=CC=CC=N3 (racemic) [rosiglitazone]
Outline: as §1

Measured: log2 fold change

PRR3 (UniProt P79522)
inactive: [1] 0.127 | [2] -0.045 | Nexturastat A 0.035 | epoxomicin -0.092 | [3] 0.253 | [4] 0.145

PRADC1 (UniProt Q9BSG0)
inactive: [1] 0.012 | [2] -0.554 | Nexturastat A 0.139 | vemurafenib -0.14 | [5] -0.065 | [6] -0.32 | epoxomicin -0.065 | [3] 0.018 | [7] -0.027 | [8] 0 | [4] 0.139

PPP2R2A, A0A590UJJ1
inactive: [3] -0.04 | [4] 0.155

PRR14L (UniProt Q5THK1)
inactive: [9] -0.039 | [10] -0.038 | volasertib 0.218 | [11] -0.088 | [3] 0.006 | [7] -0.134 | [4] 0.073
active: vemurafenib -0.62

PRELID3B (UniProt Q9Y3B1)
inactive: [9] 0.081 | Nexturastat A 0.194 | [10] -0.049 | givinostat 0.039 | volasertib -0.057 | epoxomicin 0.161 | [12] 0.318 | [3] -0.246 | [4] -0.393

PRKX (UniProt P51817)
inactive: [5] -0.103 | givinostat 0.036 | barasertib 0.126

PRR4 (UniProt Q16378)
inactive: [13] -0.081 | [2] -0.163 | [5] 0.131 | barasertib 0.203 | [11] 0.484 | rosiglitazone 0.037

PPP1R13L (UniProt Q8WUF5)
inactive: [9] -0.091 | Nexturastat A 0.036 | vemurafenib 0.104 | [10] 0.026 | barasertib -0.508 | [6] -0.022 | volasertib -0.06 | [11] 0.069 | epoxomicin -0.376 | [3] 0.047 | [7] -0.02 | rosiglitazone 0.099 | [4] 0.146

PRR16 (UniProt Q569H4)
inactive: givinostat 0.222 | [12] 0 | [3] -0.14 | [4] -0.023

PPP2R5B (UniProt Q15173)
inactive: [9] -0.131 | vemurafenib -0.104 | [10] 0.104 | [5] -0.013 | givinostat 0.083 | barasertib 0.009 | [6] -0.348 | volasertib -0.173 | [11] 0.021 | [3] 0.015 | [7] 0.128 | [8] -0.05
active: [4] -0.529

PPP2R1B (UniProt H0YDG7)
inactive: [1] -0.45 | [5] -0.358 | barasertib 0.076 | [6] -0.117 | [11] -0.092 | [3] 0.044 | rosiglitazone -0.299 | [4] -0.671

PRPF39 (UniProt Q86UA1)
inactive: [9] -0.007 | [10] 0.183 | volasertib -0.563 | [8] -0.042

PPP2R3C (UniProt Q969Q6)
inactive: [6] 0.21

PRMT6 (UniProt Q96LA8)
inactive: [13] -0.084 | [9] 0.033 | [2] 0.132 | Nexturastat A -0.048 | vemurafenib 0.057 | [10] 0.01 | [5] 0.042 | givinostat -0.112 | barasertib 0.126 | [6] -0.01 | volasertib -0.015 | [11] 0.028 | epoxomicin -0.032 | [12] 0.005 | [3] -0.016 | [7] 0.06 | rosiglitazone 0.102 | [8] -0.255 | [4] 0.054

PROSER3, A0A2R8Y8D9
inactive: [1] -0.116 | Nexturastat A 0.337 | [5] -0.03 | [6] -0.117 | epoxomicin -0.095 | [8] -0.081

PRKD2 (UniProt M0R346)
inactive: [1] -0.011 | Nexturastat A 0.236 | barasertib -0.337 | epoxomicin -0.072 | [3] -0.025 | [4] -0.14

PPP1CC (UniProt F8W1A0)
inactive: [5] -0.122 | barasertib -0.096 | [3] -0.054 | rosiglitazone -0.057 | [4] -0.238

PRELID2 (UniProt Q8N945)
inactive: [2] -0.086

PPP1R12B isoform 6 (UniProt O60237)
inactive: givinostat 0.252 | barasertib 0.108 | [11] 0.088

PPP1R16A (UniProt Q96I34)
inactive: [13] -0.126

PPP2R5C isoform 2 (UniProt Q13362)
inactive: [13] -0.047 | [2] 0.022 | [5] -0.016 | givinostat 0.048 | barasertib 0.055 | [6] -0.209

PRR12 (UniProt Q9ULL5)
inactive: [1] -0.012 | givinostat 0.213 | [12] -0.039

PPP2R3B (UniProt Q9Y5P8)
inactive: Nexturastat A 0.63 | vemurafenib 0.007 | [5] 0.176 | [11] 0.009 | epoxomicin -0.064 | [7] 0.121

PPTC7 (UniProt Q8NI37)
inactive: [2] -0.15 | Nexturastat A -0.027 | vemurafenib -0.042 | epoxomicin -0.078 | [3] 0.002 | [7] 0.002 | [4] 0.205

PRDM2 (UniProt Q13029)
inactive: [13] 0.002 | [9] 0.139 | [2] -0.111 | Nexturastat A 0.114 | vemurafenib -0.074 | [10] -0.155 | [5] 0.036 | [6] 0.055 | volasertib -0.02 | [11] 0.434 | epoxomicin 0.007 | [3] 0.046 | [7] -0.411 | [8] 0.015 | [4] 0.141

PRRG1 (UniProt O14668)
inactive: [13] 0.004 | [9] 0.004 | [2] 0.144 | [10] -0.007 | [5] -0.055 | volasertib 0.01 | [3] -0.024 | [4] -0.022

PPP1R3D (UniProt O95685)
inactive: [13] -0.024 | [2] 0.023 | [5] -0.163 | givinostat -0.045 | barasertib 0.078 | [11] -0.038 | [12] 0.037 | [3] 0.312 | rosiglitazone 0.044 | [4] -0.161

PRNP (UniProt P04156)
inactive: [1] -0.001 | [5] 0.064 | givinostat -0.028 | barasertib 0.019 | [12] 0.006 | [3] -0.011 | rosiglitazone -0.144 | [4] -0.169

Seven successive records already listed, quoted:
PPP2R5C isoform 2 (UniProt Q13362)
inactive: [13] -0.047 | [2] 0.022 | [5] -0.016 | givinostat 0.048 | barasertib 0.055 | [6] -0.209

PRR12 (UniProt Q9ULL5)
inactive: [1] -0.012 | givinostat 0.213 | [12] -0.039

PPP2R3B (UniProt Q9Y5P8)
inactive: Nexturastat A 0.63 | vemurafenib 0.007 | [5] 0.176 | [11] 0.009 | epoxomicin -0.064 | [7] 0.121

PPTC7 (UniProt Q8NI37)
inactive: [2] -0.15 | Nexturastat A -0.027 | vemurafenib -0.042 | epoxomicin -0.078 | [3] 0.002 | [7] 0.002 | [4] 0.205

PRDM2 (UniProt Q13029)
inactive: [13] 0.002 | [9] 0.139 | [2] -0.111 | Nexturastat A 0.114 | vemurafenib -0.074 | [10] -0.155 | [5] 0.036 | [6] 0.055 | volasertib -0.02 | [11] 0.434 | epoxomicin 0.007 | [3] 0.046 | [7] -0.411 | [8] 0.015 | [4] 0.141

PRRG1 (UniProt O14668)
inactive: [13] 0.004 | [9] 0.004 | [2] 0.144 | [10] -0.007 | [5] -0.055 | volasertib 0.01 | [3] -0.024 | [4] -0.022

PPP1R3D (UniProt O95685)
inactive: [13] -0.024 | [2] 0.023 | [5] -0.163 | givinostat -0.045 | barasertib 0.078 | [11] -0.038 | [12] 0.037 | [3] 0.312 | rosiglitazone 0.044 | [4] -0.161

Continued:

PRH1 (UniProt P02810)
inactive: [11] 0.213

PPP2CB (UniProt E5RHC1)
inactive: givinostat 0.22 | [12] 0.068
